Data as given in article PMC7326958.
No constants are given. Whether binding was seen depends on the method and setting. Binding seen in cells or lysates may run through a third protein. Some results given as binding are weak or reduced against the parent protein; the word gives no strength. Each block holds one substance with its values, some of them ahead of it.

Protein sequences, listed by entry. Tags and fused reporters are not part of them.
UniProt Q96DH6: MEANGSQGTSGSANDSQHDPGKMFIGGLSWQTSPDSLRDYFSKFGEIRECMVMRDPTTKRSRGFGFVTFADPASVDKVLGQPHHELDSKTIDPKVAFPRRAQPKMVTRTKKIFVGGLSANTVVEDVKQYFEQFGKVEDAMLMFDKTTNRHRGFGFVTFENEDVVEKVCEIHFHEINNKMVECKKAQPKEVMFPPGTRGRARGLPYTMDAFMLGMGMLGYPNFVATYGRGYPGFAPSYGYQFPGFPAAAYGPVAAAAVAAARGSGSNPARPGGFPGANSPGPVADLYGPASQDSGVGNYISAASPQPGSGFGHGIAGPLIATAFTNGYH
UniProt Q03135: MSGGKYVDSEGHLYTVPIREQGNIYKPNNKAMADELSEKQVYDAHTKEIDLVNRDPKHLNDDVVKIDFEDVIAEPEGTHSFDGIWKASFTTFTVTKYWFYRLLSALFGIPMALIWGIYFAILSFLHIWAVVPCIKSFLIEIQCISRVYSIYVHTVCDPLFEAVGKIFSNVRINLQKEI

Tests used:
[1] = target: Musashi-2 (MSI2), endogenous (human (endogenous in ST8814)) (UniProt Q96DH6); experiment: co-IP; endogenous proteins in ST8814 cells; IP with the MSI2 antibody or the CAV1 antibody, Western blot
GST-MSI2 fusion protein = GST-MSI2 fusion protein (UniProt Q96DH6); experiment: pull-down; GST-MSI2 purified from bacteria immobilized on GST beads, incubated with lysates of HEK293T cells transiently transfected with His-tagged CAV1, 2 h at 4 °C, washed five times, Western blot; only the target purified
[2] = target: Caveolin-1 (CAV1), endogenous (human (endogenous in ST8814)) (UniProt Q03135); experiment: co-IP; endogenous proteins in ST8814 cells; IP with the MSI2 antibody or the CAV1 antibody, Western blot

binding [1]: binds
Substance: Caveolin-1 (CAV1), endogenous (from UniProt Q03135 1-178)

binding (GST-MSI2 fusion protein): binds
Substance: His-tagged full-length CAV1 (from UniProt Q03135 1-178)

binding [2]: binds
Substance: Musashi-2 (MSI2), endogenous (from UniProt Q96DH6 1-328)
